{
  "sequences": {"note": "Sequences of proteins named here, by UniProt entry; tags and fusion partners are left off.", "UniProt Q0JBA9, entry or part of it": "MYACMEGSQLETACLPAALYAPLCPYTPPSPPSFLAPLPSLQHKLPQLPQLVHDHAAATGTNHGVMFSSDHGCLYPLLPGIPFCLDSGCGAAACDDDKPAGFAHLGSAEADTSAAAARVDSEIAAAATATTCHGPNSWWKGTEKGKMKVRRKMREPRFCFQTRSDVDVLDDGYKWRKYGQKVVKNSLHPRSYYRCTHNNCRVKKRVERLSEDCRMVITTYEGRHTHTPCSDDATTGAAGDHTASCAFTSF"},
  "source": "paper PMC7819943",
  "about": "“Rice protein-binding microarrays: a tool to detect cis-acting elements near promoter regions in rice”",
  "note": "Some of the results follow.",
  "data": [
    {"molecular_target": "OsWRKY34 (Oryza sativa, UniProt Q0JBA9 1-250)", "assay": "protein-binding microarray (RPBM); PBS, 2% BSA, 51.3 ng/ul salmon testes DNA, 50 uM zinc acetate, 200 nM TF, 25 C, 1 h; high values mean tight binding", "conditions": "protein: recombinant; tags: N-terminal polyhistidine and DsRed monomer fusion (pET32a); label: CyDye5-dUTP incorporated in the synthesized complementary strand; 3' TTTTT single-stranded linker to array surface; dsDNA, one strand shown", "how_it_was_run": "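Binding signal is reported as fluorescence intensity per feature (arbitrary units) from an Axon 4000B scanner. Incubation used 200 nM of each Ni–NTA-purified, N-terminally polyhistidine- and DsRed-fused transcription factor from E. coli BL21-CodonPlus on a double-stranded custom Agilent array for 1 h at 25 °C, with 50 µM zinc acetate in the buffer, followed by washing.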", "values": [
      {"sequence": "TTCGGGTTCAATTTCAGGTTCAGTCGCTTGCTTGGTGCTTCGGAGTCACCTAGTGCAG", "binding signal": "8960 fluorescence intensity (a.u.)"},
      {"sequence": "CTTCTCTTTCTTGCTCCGTCAATACACCAGCACACAAATCCGGAGTCACCTAGTGCAG", "binding signal": "10600 fluorescence intensity (a.u.)"},
      {"sequence": "GACTGATGTACACCGCTGCACCCGCGCCTGCACCCGCGCGCGGAGTCACCTAGTGCAG", "binding signal": "11200 fluorescence intensity (a.u.)"},
      {"sequence": "CGCGGGTACGTTTTTCAAATGATTTAACAGTACGTTTTTACGGAGTCACCTAGTGCAG", "binding signal": "9480 fluorescence intensity (a.u.)"},
      {"sequence": "TTATCATGGGCACAACTTGCTAGATCTCATCCAATCTTGGCGGAGTCACCTAGTGCAG", "binding signal": "10600 fluorescence intensity (a.u.)"},
      {"sequence": "GTTGGAGTTGGAGGAGGTGGTGCCGTGGTGGGGATTGATGCGGAGTCACCTAGTGCAG", "binding signal": "10500 fluorescence intensity (a.u.)"},
      {"sequence": "CATCTTTGTGGTTGTGTGGGTGTGTGTGTATATATATACCCGGAGTCACCTAGTGCAG", "binding signal": "8180 fluorescence intensity (a.u.)"},
      {"sequence": "TATTCTTCTTCTCTTTGGGCATTGCTTTATATGGTTATTTCGGAGTCACCTAGTGCAG", "binding signal": "8480 fluorescence intensity (a.u.)"},
      {"sequence": "AACATTTTTTAAATTTATTCTCACTTTTTCTGATTTTTACCGGAGTCACCTAGTGCAG", "binding signal": "8210 fluorescence intensity (a.u.)"},
      {"sequence": "AAACTTCCTCTTGAAATTTCATTCATGTTCCTTACTTACACGGAGTCACCTAGTGCAG", "binding signal": "10100 fluorescence intensity (a.u.)"},
      {"sequence": "AGTAATGTCATTGGCCTATCATATTCTGACTATGTTTTATCGGAGTCACCTAGTGCAG", "binding signal": "9290 fluorescence intensity (a.u.)"},
      {"sequence": "TGATTTAGCTGATATCGCGTGTTTATTTTCTTCGGAATTTCGGAGTCACCTAGTGCAG", "binding signal": "8390 fluorescence intensity (a.u.)"},
      {"sequence": "TCTTTGTTTATGCTTGTCGTTTCCTTGTGTGAGGTCAGCACGGAGTCACCTAGTGCAG", "binding signal": "11600 fluorescence intensity (a.u.)"},
      {"sequence": "TCTAGATATCTCTCTCTTTTTCTCTCTAGATCTCTCTTTTCGGAGTCACCTAGTGCAG", "binding signal": "13500 fluorescence intensity (a.u.)"},
      {"sequence": "CCTTCTTGTCCTGCTCCCGCGCCGGCTCCGACCGGGTCCTCGGAGTCACCTAGTGCAG", "binding signal": "8600 fluorescence intensity (a.u.)"},
      {"sequence": "CTGGTCACCCATTTAGTTGTGTTTTTTTTCTGTTATATTTCGGAGTCACCTAGTGCAG", "binding signal": "9390 fluorescence intensity (a.u.)"},
      {"sequence": "CATATATGTAGCCCGCTACTCTTCTCTCTTCTTTTATCTTCGGAGTCACCTAGTGCAG", "binding signal": "8980 fluorescence intensity (a.u.)"},
      {"sequence": "CCGCCGCTGTCGTCCTCGTCGTCCCCACCACCACCACCTCCGGAGTCACCTAGTGCAG", "binding signal": "8210 fluorescence intensity (a.u.)"},
      {"sequence": "AAGAGAATTGTGAGGGTGCATTGTGGAGGTCATATCCTTACGGAGTCACCTAGTGCAG", "binding signal": "9490 fluorescence intensity (a.u.)"},
      {"sequence": "TAATTTTAGGTTTTTTCTCATGTTTATTTTTAAGTATTTGCGGAGTCACCTAGTGCAG", "binding signal": "8860 fluorescence intensity (a.u.)"},
      {"sequence": "TCCGTTTCCATCTCGTTCTGCATTTTCGTGGGCTTTGATTCGGAGTCACCTAGTGCAG", "binding signal": "10300 fluorescence intensity (a.u.)"},
      {"sequence": "GGAAGGCTGGCTTCCGCGCGACGCGTTCTTCCTTTCCGCGCGGAGTCACCTAGTGCAG", "binding signal": "8470 fluorescence intensity (a.u.)"},
      {"sequence": "CCTAGATGTATGTATGCGTTTACAAGGGTGAGTGTGCTTACGGAGTCACCTAGTGCAG", "binding signal": "8670 fluorescence intensity (a.u.)"}
    ]}
  ]
}
